The list shows a part of the results. The data scatter; read single values as rough.
compound: ClCC(=O)N[C@@H]1CCCc2ccccc12; experiment: log2 mean competition ratio of IA-DTB cysteine labelling (DMSO/compound) (log2 ratio); higher = stronger cysteine engagement by compound; conditions: 200 µM; treatment time: 4 h; cell line lysate: HEK293T
Experimental: (§1)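 IA-DTB competitive cysteine chemoproteomics in HEK293T RIPA lysate. Lysates were treated with compound 29 or 30 at 50 or 200 µM for 4 h, then IA-DTB (500 µM, 1 h), trypsin-digested, NeutrAvidin-enriched and analysed by diaPASEF. Competition ratio = intensity DMSO / intensity compound (n=4 treated, n=64 DMSO); binding: mean log2 CR ≥ 1 and p ≤ 0.05 plus QC filters. Target is the cysteine site.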

Protein sequences, listed by entry. Tags and fused reporters are not part of them. Lines headed by an entry give the natural chain unless they say otherwise; changes in a name come on top. Residues count along the entry.
UniProt Q9UJF2: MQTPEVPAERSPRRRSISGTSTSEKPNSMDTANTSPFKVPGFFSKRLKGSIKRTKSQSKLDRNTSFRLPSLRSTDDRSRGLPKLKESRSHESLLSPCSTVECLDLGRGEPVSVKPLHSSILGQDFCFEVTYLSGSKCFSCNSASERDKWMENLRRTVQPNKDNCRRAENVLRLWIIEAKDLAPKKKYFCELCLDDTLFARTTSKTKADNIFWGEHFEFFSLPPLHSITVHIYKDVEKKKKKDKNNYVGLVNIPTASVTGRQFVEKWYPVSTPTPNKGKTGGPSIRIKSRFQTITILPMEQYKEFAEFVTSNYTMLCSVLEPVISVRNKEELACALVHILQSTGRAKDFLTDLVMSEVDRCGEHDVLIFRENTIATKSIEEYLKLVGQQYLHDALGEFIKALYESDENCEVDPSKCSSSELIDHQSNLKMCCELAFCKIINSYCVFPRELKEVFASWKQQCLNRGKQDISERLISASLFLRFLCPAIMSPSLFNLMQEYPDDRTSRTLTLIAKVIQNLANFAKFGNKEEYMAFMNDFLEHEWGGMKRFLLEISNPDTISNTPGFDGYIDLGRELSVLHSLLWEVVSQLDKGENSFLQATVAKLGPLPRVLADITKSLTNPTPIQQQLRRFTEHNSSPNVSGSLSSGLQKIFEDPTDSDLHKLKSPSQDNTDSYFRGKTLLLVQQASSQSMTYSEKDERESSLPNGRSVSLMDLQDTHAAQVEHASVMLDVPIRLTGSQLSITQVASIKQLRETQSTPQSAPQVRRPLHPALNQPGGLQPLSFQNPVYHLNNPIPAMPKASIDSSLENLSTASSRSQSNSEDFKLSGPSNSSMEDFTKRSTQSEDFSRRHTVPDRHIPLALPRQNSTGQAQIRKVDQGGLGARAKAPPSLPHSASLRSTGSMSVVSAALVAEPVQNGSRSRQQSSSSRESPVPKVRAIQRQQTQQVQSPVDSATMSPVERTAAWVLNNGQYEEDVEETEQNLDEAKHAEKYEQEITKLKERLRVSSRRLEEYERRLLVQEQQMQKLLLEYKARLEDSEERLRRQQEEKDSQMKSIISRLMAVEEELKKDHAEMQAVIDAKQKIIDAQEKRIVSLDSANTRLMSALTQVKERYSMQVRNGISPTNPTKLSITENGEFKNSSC
UniProt P47736: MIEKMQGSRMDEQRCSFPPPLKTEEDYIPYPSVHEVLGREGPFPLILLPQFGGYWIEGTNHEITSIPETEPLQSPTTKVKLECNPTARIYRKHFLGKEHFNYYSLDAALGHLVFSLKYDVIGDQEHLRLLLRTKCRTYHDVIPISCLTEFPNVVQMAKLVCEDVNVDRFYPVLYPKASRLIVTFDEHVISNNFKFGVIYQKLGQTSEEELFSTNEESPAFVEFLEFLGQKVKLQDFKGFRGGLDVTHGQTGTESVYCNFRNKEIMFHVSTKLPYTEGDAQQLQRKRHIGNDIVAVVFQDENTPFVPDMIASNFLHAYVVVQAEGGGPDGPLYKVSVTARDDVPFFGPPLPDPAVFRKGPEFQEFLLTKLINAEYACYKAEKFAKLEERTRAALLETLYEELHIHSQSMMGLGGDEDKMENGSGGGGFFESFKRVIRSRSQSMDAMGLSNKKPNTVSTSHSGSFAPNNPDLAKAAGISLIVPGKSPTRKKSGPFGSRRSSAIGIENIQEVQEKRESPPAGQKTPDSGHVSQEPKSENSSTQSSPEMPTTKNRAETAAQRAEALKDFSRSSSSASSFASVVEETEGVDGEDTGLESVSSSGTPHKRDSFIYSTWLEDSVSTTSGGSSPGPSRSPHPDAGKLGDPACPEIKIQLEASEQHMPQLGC
UniProt Q9Y3P4: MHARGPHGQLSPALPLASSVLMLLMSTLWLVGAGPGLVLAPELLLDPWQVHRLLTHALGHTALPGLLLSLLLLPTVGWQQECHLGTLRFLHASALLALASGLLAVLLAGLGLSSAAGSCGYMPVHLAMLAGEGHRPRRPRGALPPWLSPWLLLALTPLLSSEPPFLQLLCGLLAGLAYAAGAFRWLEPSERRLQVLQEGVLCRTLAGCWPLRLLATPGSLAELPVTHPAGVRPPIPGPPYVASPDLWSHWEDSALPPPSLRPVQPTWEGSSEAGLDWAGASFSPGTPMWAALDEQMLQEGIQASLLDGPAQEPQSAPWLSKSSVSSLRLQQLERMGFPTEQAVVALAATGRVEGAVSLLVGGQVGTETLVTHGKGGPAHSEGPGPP
UniProt Q9H2T7: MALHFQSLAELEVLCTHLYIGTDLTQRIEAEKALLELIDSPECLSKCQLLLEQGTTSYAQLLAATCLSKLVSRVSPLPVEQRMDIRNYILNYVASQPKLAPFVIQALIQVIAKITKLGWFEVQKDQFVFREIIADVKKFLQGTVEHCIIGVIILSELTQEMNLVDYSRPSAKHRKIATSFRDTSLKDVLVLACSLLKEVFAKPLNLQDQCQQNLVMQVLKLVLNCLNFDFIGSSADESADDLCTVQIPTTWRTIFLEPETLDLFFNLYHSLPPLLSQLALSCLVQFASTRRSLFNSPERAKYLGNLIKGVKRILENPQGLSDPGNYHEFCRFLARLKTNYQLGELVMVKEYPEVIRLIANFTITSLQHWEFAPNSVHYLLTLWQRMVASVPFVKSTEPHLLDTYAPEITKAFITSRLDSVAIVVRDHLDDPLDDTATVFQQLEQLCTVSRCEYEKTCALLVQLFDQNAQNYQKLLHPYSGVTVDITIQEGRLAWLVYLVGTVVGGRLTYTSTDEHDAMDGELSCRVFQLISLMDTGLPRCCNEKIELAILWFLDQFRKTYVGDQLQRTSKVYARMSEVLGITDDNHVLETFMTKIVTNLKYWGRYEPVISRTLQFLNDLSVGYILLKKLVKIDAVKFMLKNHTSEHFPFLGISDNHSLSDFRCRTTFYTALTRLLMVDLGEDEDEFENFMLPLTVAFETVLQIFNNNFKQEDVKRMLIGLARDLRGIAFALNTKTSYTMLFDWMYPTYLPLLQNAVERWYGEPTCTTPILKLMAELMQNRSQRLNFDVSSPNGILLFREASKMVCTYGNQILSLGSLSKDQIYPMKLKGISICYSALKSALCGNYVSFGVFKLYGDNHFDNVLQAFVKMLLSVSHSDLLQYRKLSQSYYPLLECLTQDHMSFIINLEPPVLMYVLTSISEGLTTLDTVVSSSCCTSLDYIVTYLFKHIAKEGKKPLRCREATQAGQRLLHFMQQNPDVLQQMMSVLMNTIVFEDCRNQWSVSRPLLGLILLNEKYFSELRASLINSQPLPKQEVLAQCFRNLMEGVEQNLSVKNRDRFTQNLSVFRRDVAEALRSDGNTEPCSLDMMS
UniProt Q15283: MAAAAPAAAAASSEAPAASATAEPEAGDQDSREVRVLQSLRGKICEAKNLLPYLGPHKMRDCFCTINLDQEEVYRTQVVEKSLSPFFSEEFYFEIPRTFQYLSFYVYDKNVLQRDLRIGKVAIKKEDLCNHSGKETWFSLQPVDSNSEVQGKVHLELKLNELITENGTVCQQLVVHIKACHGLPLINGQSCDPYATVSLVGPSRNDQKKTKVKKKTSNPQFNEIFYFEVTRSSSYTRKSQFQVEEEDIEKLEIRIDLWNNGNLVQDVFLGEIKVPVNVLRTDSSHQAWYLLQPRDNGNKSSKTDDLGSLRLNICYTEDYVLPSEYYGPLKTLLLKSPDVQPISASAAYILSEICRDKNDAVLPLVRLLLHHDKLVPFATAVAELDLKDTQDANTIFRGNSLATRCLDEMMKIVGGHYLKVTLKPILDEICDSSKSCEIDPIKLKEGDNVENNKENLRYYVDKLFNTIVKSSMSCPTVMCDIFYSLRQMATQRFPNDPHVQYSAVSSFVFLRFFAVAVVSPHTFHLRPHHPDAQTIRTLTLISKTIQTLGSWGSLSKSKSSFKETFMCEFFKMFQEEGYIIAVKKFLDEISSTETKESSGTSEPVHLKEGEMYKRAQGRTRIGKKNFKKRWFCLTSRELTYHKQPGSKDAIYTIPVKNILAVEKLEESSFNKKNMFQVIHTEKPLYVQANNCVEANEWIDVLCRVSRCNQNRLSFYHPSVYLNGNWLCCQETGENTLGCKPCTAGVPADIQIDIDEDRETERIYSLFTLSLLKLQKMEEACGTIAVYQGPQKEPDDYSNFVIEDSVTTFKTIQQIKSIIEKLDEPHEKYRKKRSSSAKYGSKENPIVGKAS
UniProt Q96IZ5: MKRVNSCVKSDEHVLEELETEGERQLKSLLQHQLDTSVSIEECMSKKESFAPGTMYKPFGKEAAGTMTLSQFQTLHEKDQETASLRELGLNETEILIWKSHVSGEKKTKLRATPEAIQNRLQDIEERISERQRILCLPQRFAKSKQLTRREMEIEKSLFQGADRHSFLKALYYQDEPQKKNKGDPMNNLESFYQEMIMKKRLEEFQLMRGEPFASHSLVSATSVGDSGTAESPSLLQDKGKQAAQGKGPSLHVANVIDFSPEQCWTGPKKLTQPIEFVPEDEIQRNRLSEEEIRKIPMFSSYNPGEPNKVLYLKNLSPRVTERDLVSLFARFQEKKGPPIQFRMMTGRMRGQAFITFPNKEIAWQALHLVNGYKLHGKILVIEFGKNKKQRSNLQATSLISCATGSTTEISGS
UniProt Q5T481: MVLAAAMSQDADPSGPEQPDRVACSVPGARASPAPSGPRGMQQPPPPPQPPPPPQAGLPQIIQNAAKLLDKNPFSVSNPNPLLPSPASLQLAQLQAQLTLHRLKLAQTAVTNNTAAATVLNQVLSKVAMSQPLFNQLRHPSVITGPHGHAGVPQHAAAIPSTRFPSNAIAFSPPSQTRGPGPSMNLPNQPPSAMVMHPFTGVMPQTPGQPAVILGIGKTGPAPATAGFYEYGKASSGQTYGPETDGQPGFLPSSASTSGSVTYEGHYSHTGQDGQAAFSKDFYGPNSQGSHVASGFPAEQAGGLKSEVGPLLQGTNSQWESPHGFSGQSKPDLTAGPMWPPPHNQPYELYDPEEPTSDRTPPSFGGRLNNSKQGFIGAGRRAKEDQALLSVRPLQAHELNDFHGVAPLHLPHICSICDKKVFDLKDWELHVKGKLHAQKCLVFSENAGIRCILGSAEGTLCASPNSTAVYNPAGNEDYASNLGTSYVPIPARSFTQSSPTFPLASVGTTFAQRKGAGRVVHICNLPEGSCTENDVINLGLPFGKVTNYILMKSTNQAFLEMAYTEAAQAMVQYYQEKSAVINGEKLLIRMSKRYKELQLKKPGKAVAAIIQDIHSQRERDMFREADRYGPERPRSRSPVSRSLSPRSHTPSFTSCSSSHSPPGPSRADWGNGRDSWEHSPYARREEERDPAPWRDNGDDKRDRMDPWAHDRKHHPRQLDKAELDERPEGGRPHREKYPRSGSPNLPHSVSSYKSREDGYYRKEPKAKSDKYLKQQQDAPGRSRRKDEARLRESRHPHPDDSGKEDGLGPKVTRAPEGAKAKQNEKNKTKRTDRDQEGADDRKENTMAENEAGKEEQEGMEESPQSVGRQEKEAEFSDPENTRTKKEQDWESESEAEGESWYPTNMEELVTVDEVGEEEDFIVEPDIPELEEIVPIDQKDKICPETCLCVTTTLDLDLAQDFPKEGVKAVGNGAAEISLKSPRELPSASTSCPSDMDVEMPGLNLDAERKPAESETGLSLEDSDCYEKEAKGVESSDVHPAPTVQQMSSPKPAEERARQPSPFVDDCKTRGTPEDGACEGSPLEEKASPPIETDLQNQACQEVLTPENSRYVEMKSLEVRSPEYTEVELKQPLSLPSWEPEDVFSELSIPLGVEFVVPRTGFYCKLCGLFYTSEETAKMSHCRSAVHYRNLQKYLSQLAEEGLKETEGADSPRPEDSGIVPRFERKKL
UniProt Q96S59: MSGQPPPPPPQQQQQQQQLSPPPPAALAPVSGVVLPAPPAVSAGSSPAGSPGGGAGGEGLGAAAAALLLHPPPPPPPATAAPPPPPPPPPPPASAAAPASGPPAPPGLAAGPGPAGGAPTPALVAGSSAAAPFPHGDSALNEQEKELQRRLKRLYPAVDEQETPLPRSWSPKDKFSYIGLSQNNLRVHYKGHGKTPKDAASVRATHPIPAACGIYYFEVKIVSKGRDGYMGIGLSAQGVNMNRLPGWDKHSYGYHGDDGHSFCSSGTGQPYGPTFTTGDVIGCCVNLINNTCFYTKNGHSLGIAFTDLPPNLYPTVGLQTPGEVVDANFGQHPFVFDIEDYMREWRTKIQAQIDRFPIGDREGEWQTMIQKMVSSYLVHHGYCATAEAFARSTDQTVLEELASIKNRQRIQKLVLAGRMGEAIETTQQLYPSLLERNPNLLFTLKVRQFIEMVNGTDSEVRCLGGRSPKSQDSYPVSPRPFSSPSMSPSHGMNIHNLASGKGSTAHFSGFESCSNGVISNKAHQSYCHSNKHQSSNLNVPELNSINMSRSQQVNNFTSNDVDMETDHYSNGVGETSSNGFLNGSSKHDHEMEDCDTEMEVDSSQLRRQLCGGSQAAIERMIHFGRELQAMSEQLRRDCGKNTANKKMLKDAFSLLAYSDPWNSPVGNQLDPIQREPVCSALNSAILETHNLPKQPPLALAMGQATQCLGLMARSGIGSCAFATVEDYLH
UniProt O60518, 784-806: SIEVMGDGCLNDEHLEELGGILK
UniProt Q8TEU7, 1393-1415: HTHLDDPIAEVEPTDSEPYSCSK

Row | Target | log2 mean competition ratio
1 | RASAL2 C360 (UniProt Q9UJF2) | 0.217
2 | RAP1GAP C83 (UniProt P47736) | 0.034
3 | RHBDD3 C208 (UniProt Q9Y3P4) | 0.135
4 | RNASEH1 C46 (UniProt O60930) | 0.164
5 | RANBP17 C765 (UniProt Q9H2T7) | -0.125
6 | RASA2 C405 (UniProt Q15283) | -0.0132
7 | RFX5 C107 (UniProt P48382) | 0.217
8 | RBM41 C136 (UniProt Q96IZ5) | 0.225
9 | RBL1 C1047 (UniProt P28749) | 0.233
10 | RBM20 C24 (UniProt Q5T481) | 0.147
11 | RANBP9 C610 (UniProt Q96S59) | 0.53

compound: ClCC(=O)N[C@H]1CCCc2ccccc12; experiment: as above; conditions: 50 µM; treatment time: 4 h; cell line lysate: HEK293T
Experimental: as §1

Row | Target | log2 mean competition ratio
12 | RICTOR C68 (UniProt Q6R327) | -0.583
13 | RANBP2 C3032 (UniProt P49792) | 0.258
14 | RAF1 C81 (UniProt P04049) | 1.11
15 | RICTOR C218 (UniProt Q6R327) | -0.124
16 | RANBP6 C792 (UniProt O60518) | -0.212
17 | RANGAP1 C152 (UniProt P46060) | -0.198
18 | RFC4 C48 (UniProt P35249) | 0.131
19 | RC3H1 C1049 (UniProt Q5TC82) | -0.035
20 | RANBP6 C1065 (UniProt O60518) | -0.221
21 | RFC1 C607 (UniProt P35251) | 0.129
22 | RMND5A C4 (UniProt Q9H871) | -0.153
23 | RIPOR1 C1016 (UniProt Q6ZS17) | 0.197
24 | RASA1 C576 (UniProt P20936) | 0.276
25 | RANBP6 C952 (UniProt O60518) | -0.427
26 | RBBP8 C567 (UniProt Q99708) | 0.376
27 | RAPGEF6 C1413 (UniProt Q8TEU7) | 0.43
28 | RAP1GDS1 C350 (UniProt P52306) | -0.402
29 | RHBDD3 C202 (UniProt Q9Y3P4) | -0.316
30 | RBPJ C180 (UniProt Q06330) | -0.0912

Row | Target | log2 mean competition ratio
31 | RANBP10 C501 (UniProt Q6VN20) | 0.772
32 | RMC1 C11 (UniProt Q96DM3) | -0.447
33 | RANBP2 C348 (UniProt P49792) | 0.0111
34 | RB1CC1 C1236 (UniProt Q8TDY2) | -0.3
35 | RBM20 C1024 (UniProt Q5T481) | -0.164
36 | RECQL4 C749 (UniProt O94761) | 0.222
37 | RANBP2 C2791 (UniProt P49792) | 0.135
38 | RASAL2 C360 (UniProt Q9UJF2) | -0.421
39 | RAP1GAP C83 (UniProt P47736) | -0.0227
40 | RHBDD3 C208 (UniProt Q9Y3P4) | 0.267
41 | RNASEH1 C46 (UniProt O60930) | -0.0903
42 | RANBP17 C765 (UniProt Q9H2T7) | -0.0228
43 | RASA2 C405 (UniProt Q15283) | 0.847
44 | RFX5 C107 (UniProt P48382) | -0.21
45 | RBM41 C136 (UniProt Q96IZ5) | -0.151
46 | RBL1 C1047 (UniProt P28749) | -0.583
47 | RBM20 C24 (UniProt Q5T481) | -0.0397
48 | RANBP9 C610 (UniProt Q96S59) | -0.0256

same assay, conditions: 200 µM; treatment time: 4 h; cell line lysate: HEK293T

Row | Target | log2 mean competition ratio
49 | RICTOR C68 (UniProt Q6R327) | 0.0834
50 | RANBP2 C3032 (UniProt P49792) | -0.214
51 | RAF1 C81 (UniProt P04049) | -0.0954
52 | RICTOR C218 (UniProt Q6R327) | -0.297
53 | RANBP6 C792 (UniProt O60518) | 0.191
54 | RANGAP1 C152 (UniProt P46060) | -0.0458
55 | RFC4 C48 (UniProt P35249) | 0.369
56 | RC3H1 C1049 (UniProt Q5TC82) | -0.149
57 | RANBP6 C1065 (UniProt O60518) | 0.0243
58 | RFC1 C607 (UniProt P35251) | 0.41
59 | RMND5A C4 (UniProt Q9H871) | 0.0682
60 | RIPOR1 C1016 (UniProt Q6ZS17) | 0.145
61 | RASA1 C576 (UniProt P20936) | 0.000802
62 | RANBP6 C952 (UniProt O60518) | -0.0483
63 | RBBP8 C567 (UniProt Q99708) | -0.0341
64 | RAPGEF6 C1413 (UniProt Q8TEU7) | -0.0514
65 | RAP1GDS1 C350 (UniProt P52306) | -0.199
66 | RHBDD3 C202 (UniProt Q9Y3P4) | 0.347
67 | RBPJ C180 (UniProt Q06330) | -0.0983

Row | Target | log2 mean competition ratio
68 | RANBP10 C501 (UniProt Q6VN20) | 0.36
69 | RMC1 C11 (UniProt Q96DM3) | -0.0939
70 | RANBP2 C348 (UniProt P49792) | 0.422
71 | RB1CC1 C1236 (UniProt Q8TDY2) | -0.126
72 | RBM20 C1024 (UniProt Q5T481) | 0.0603
73 | RECQL4 C749 (UniProt O94761) | 0.262
74 | RANBP2 C2791 (UniProt P49792) | -0.244
75 | RASAL2 C360 (UniProt Q9UJF2) | 0.041
76 | RAP1GAP C83 (UniProt P47736) | 0.198
77 | RHBDD3 C208 (UniProt Q9Y3P4) | 0.155
78 | RNASEH1 C46 (UniProt O60930) | -0.0589
79 | RANBP17 C765 (UniProt Q9H2T7) | -0.148
80 | RASA2 C405 (UniProt Q15283) | 0.319
81 | RFX5 C107 (UniProt P48382) | 0.158
82 | RBM41 C136 (UniProt Q96IZ5) | 0.171
83 | RBL1 C1047 (UniProt P28749) | 0.0648
84 | RBM20 C24 (UniProt Q5T481) | 0.11
85 | RANBP9 C610 (UniProt Q96S59) | 0.385
